The values that follow come from the supplement of paper PMC8256030.

Where “and” joins values, the source holds several entries; their conditions need not be identical. Equal entries are not always repeated. Structures can show the parent of a compound that is named as a salt. The list shows a part of the results. Repeats in this data set agree poorly, so a single value says little.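 HEK293T cells were given each compound shortly before transfection with a reporter in which red mCherry is followed by the SARS-CoV-2 frameshift element and then GFP in the −1 frame, so GFP appears only after frameshifting.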

In this assay the test system is HEK293T. The experiment in a line: percent viability (nuclei count) relative to control; higher = more viable cells. Particulars: 10 µM; 24 h.
Turning to `CC(C1=C(CCN(C)C)Cc2ccccc21)c1ccccn1` (stereo not given) [dimetindene], the percent viability was found to be 129%. In the case of `C/N=C(/NC#N)NCCSCc1csc(NC(=N)N)n1` [tiotidine] it was 153%; in that of `CNC[C@H](O)[C@@H](O)[C@H](O)[C@H](O)CO`, 38.9%. Regarding `CC1CCC(NC(=O)N(CCCl)N=O)CC1` (stereo not given) [semustine], the percent viability is 337%. Take `O=S(=O)(c1cccc2cnccc12)N1CCCNCC1`: the percent viability is 402% and 380%. Consider `COC(=O)Nc1nc2cc(C(=O)c3cccs3)ccc2[nH]1` [nocodazole], for which the percent viability is 13.1%. Consider `O=C1O[C@H](CO)[C@@H](O)[C@H](O)[C@H]1O`, for which the percent viability came to 254%. As to `CC[C@@H]1C(=O)N(C)c2cnc(Nc3ccc(C(=O)NC4CCN(C)CC4)cc3OC)nc2N1C1CCCC1`, the percent viability was 34.8%. Consider `Cn1c(=O)cnn(CCCCN2CCN(c3ncccn3)CC2)c1=O` [eptapirone], for which the percent viability was 107%. In the case of `CCCOc1ccc2[nH]c(NC(=O)OC)nc2c1` [oxibendazole] it was 49.9% and 52.7%; in that of `CCC[C@@H]1C[C@@H](C(=O)N[C@@H]([C@H]2O[C@H](SC)[C@H](O)[C@@H](O)[C@H]2O)[C@@H](C)O)N(C)C1`, 146%.

For the molecule `Cc1cc(NS(=O)(=O)c2ccc(N)cc2)no1` [sulfamethoxazole], the percent viability was determined as 160%. In the case of `CC(NCCC(c1ccccc1)c1ccccc1)c1ccccc1` (stereo not given) [fendiline] it was 330%. `Nc1nc2ccc(OC(F)(F)F)cc2s1` [Riluzole·HCl]: the percent viability stood at 369%.

Regarding `CC(C)(C)CC(C)(C)c1ccc(O)c(Cc2ccc(Cl)cc2Cl)c1` [clofoctol], the percent viability is 49.9%. Turning to `O=C(NN1CCCCCC1)NS(=O)(=O)c1ccc(Cl)cc1` [glypinamide], the percent viability was determined as 166%. As for `CCCC(CCC)C(=O)NCC(N)=O` [valrocemide], the percent viability stood at 257%. `CCOC(=O)[C@H](CCc1ccccc1)N[C@@H](C)C(=O)N1CC2(C[C@H]1C(=O)O)SCCS2` [spirapril]: the percent viability came out at 166%. On to `COC(=O)CCNC(=O)[C@@H]1CSC(C)N1` (stereo not given in full) [alonacic], for which the percent viability stood at 224%. For the molecule `N=C(N)NC(=O)c1nc(Cl)c(N)nc1N` [amiloride], the percent viability came out at 177%. Regarding `COc1cc(OC)nc(O[C@H](C(=O)O)C(OC)(c2ccccc2)c2ccccc2)n1` [darusentan], the percent viability came out at 207%.

Regarding `COc1ccc(C(=O)CCC(=O)O)c2ccccc12` [menbutone], the percent viability was 186%. As to `CCc1[nH]c(=O)[nH]c1C(=O)c1ccncc1` [piroximone], the percent viability was 226%. As to `COc1cc2c(cc1OC)-c1c/c(=N\c3c(C)cc(C)cc3C)n(C)c(=O)n1CC2` [trequinsin], the percent viability turned out to be 151%. With `OCc1ccccc1` [benzyl alcohol], the percent viability turned out to be 288%. In the case of `CC1(C)S[C@@H]2[C@H](NC(=O)[C@H](NC(=O)N3CCNC3=O)c3ccccc3)C(=O)N2[C@H]1C(=O)O` [Azlin] it was 204% and 213%. For `O=C(O[C@@H]1C[C@@H]2C[C@H]3C[C@H](C1)N2CC3=O)c1c[nH]c2ccccc12` [Dolasetron], the percent viability is 282%. As to `O=C(O)c1ccccc1-c1c2ccc(=O)cc-2oc2cc(O)ccc12`, the percent viability stood at 335%.

In the case of `C[C@H](CCC(=O)NCCS(=O)(=O)O)[C@H]1CC[C@H]2[C@@H]3[C@H](O)C[C@@H]4C[C@H](O)CC[C@]4(C)[C@H]3C[C@H](O)[C@]12C` [Taurocholic acid], the percent viability came to 208%. The result for `CO/N=C1\C[C@]2(C[C@@H]3C[C@@H](C/C=C(\C)C[C@@H](C)/C=C/C=C4\CO[C@@H]5[C@H](O)C(C)=C[C@@H](C(=O)O3)[C@]45O)O2)O[C@H](/C(C)=C/C(C)C)[C@H]1C` reads 114%; that for `CC[C@@]1(O)C(=O)OCc2c1cc1n(c2=O)Cc2cc3c([N+](=O)[O-])cccc3nc2-1` [rubitecan], 18.5%; that for `CCCn1c(=O)[nH]c(=O)c2nc[nH]c21` [enprofylline], 325%. Consider `Cc1[nH]c(C)c(Cl)c(=O)c1Cl`, for which the percent viability stood at 166%. `CCN(CC)CCOC(=O)c1ccc(N)cc1Cl` [chloroprocaine]: the percent viability is 252%. Take `O=C(O)c1ccccc1-c1ccc(C(F)(F)F)cc1` [xenalipin]: the percent viability amounted to 92.2%. On to `Nc1nc(=O)c2c([nH]1)NC[C@@H](CNc1ccc(C(=O)N[C@@H](CCC(=O)O)C(=O)O)cc1)N2` [Tetrahydrofolate], for which the percent viability came to 180%. In the case of `C=C1C[C@H]2[C@@H]3C=C(C)C4=CC(=O)CC[C@]4(C)[C@H]3CC[C@]2(C)[C@@]1(OC(C)=O)C(C)=O`, the percent viability stood at 118%. For `Cc1c(Cl)cc(C(C)C)c(O)c1Cc1c(C)c(Cl)cc(C(C)C)c1O` [biclotymol], the percent viability worked out at 46.5%. In the case of `CCC[C@@]1(CCc2ccccc2)CC(O)=C([C@H](CC)c2cccc(NS(=O)(=O)c3ccc(C(F)(F)F)cn3)c2)C(=O)O1` [tipranavir], the percent viability was 192%. With `CC(C)CC1Nc2cc(Cl)c(S(N)(=O)=O)cc2S(=O)(=O)N1` (stereo not given) [butizide], the percent viability was determined as 142%.
